Results deposited as PubChem BioAssay AID504793 (Drosophila RNAi Screening Center, 2011)

Test: 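Knock-downs allowing continued mitosis even though DNA is damaged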 (primary screen)
System: Drosophila S2R+ cells
Reagent: long dsRNA against Drosophila genes, about 0.25 µg dsRNA per well
Duration: 4 days of dsRNA, then 4 hours of drug before read-out
Conditions: doxorubicin 0.5 µM for 4 hours to cause double-strand breaks, in cells also given a low, harmless dose of dsRNA against nbs to sensitise the assay
Detection: 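Mitotic index as the number of phospho-histone H3-positive cells in each well following doxorubicin, given as raw counts without normalisation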
Direction: mitotic cells: higher = more cells in mitosis, weaker G2 arrest
Rule for the call: 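Genes are called active only when high mitotic counts were reproduced with independent dsRNAs and mitosis was checked for delay without damage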
Calls: active = confirmed in follow-up tests; inactive = not confirmed
The screen tested about 23,000 reagents; below is a random part of those with a known target gene and a result. In the full data, 62 (0.27%) were called active. 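Calls come from follow-up tests whose scores are not deposited, so confirmed genes may have low counts here; counts are not normalised per plate.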 Raw values vary from plate to plate and are shown uncorrected. Reagents against one gene are numbered here.

| gene knocked down | reagent | mitotic cells, replicate 1 | call |
| --- | --- | --- | --- |
| Flo2 | 1 | 5 | inactive |
| Flo2 | 2 | 15 | inactive |
| ClpX | 1 | 7 | inactive |
| CG13739 | 1 | 10 | inactive |
| CG13739 | 2 | 3 | inactive |
| BaraB | 1 | 6 | inactive |
| CG42673 | 1 | 8 | inactive |
| CG42673 | 2 | 3 | inactive |
| CG42673 | 3 | 6 | inactive |
| CG42673 | 4 | 3 | inactive |
| CG42673 | 5 | 3 | inactive |
| CG42673 | 6 | 4 | inactive |
| CG42673 | 7 | 7 | inactive |
| CG11151 | 1 | 7 | inactive |
| Gyc88E | 1 | 3 | inactive |
| phol | 1 | 6 | inactive |
| phol | 2 | 11 | inactive |
| hbs | 1 | 4 | inactive |
| CG12171 | 1 | 4 | inactive |
| CG12171 | 2 | 8 | inactive |
| CG7968 | 1 | 4 | inactive |
| se | 1 | 4 | inactive |
| Stam | 1 | 2 | inactive |
| Stam | 2 | 5 | inactive |
| pyx | 1 | 2 | inactive |
| pyx | 2 | 5 | inactive |
| pyx | 3 | 8 | inactive |
| Nprl2 | 1 | 2 | inactive |
| Vdup1 | 1 | 4 | inactive |
| CG18301 | 1 | 6 | inactive |
| rt | 1 | 5 | inactive |
| Idua | 1 | – | inactive |
| GATAe | 1 | 20 | inactive |
| CG11951 | 1 | 13 | inactive |
| CG11951 | 2 | 8 | inactive |
| CG10909 | 1 | 5 | inactive |

Laid out differently: results already given.
{"gene knocked down": "CG42673", "reagent": 3, "mitotic cells, replicate 1": 6, "call": "inactive"}
{"gene knocked down": "CG42673", "reagent": 4, "mitotic cells, replicate 1": 3, "call": "inactive"}
{"gene knocked down": "CG42673", "reagent": 5, "mitotic cells, replicate 1": 3, "call": "inactive"}
{"gene knocked down": "CG42673", "reagent": 6, "mitotic cells, replicate 1": 4, "call": "inactive"}
{"gene knocked down": "CG42673", "reagent": 7, "mitotic cells, replicate 1": 7, "call": "inactive"}
{"gene knocked down": "CG11151", "reagent": 1, "mitotic cells, replicate 1": 7, "call": "inactive"}
{"gene knocked down": "Gyc88E", "reagent": 1, "mitotic cells, replicate 1": 3, "call": "inactive"}
{"gene knocked down": "phol", "reagent": 1, "mitotic cells, replicate 1": 6, "call": "inactive"}
{"gene knocked down": "phol", "reagent": 2, "mitotic cells, replicate 1": 11, "call": "inactive"}
{"gene knocked down": "hbs", "reagent": 1, "mitotic cells, replicate 1": 4, "call": "inactive"}
{"gene knocked down": "CG12171", "reagent": 1, "mitotic cells, replicate 1": 4, "call": "inactive"}

Continued.
| gene knocked down | reagent | mitotic cells, replicate 1 | call |
| --- | --- | --- | --- |
| ND-13A | 1 | 3 | inactive |
| ND-13A | 2 | 4 | inactive |
| Cyfip | 1 | 4 | inactive |
| dpr9 | 1 | 6 | inactive |
| dpr9 | 2 | 10 | inactive |
| dpr9 | 3 | 5 | inactive |
| dpr9 | 4 | 8 | inactive |
| CG12698 | 1 | 9 | inactive |
| CG12698 | 2 | 5 | inactive |
| CG11362 | 1 | 1 | inactive |
| CG11362 | 2 | 11 | inactive |
| CG11362 | 3 | 6 | inactive |
| CNMaR | 1 | 7 | inactive |
| CNMaR | 2 | 6 | inactive |
| CG15605 | 1 | 4 | inactive |
| jv | 1 | 6 | inactive |
| jv | 2 | 10 | inactive |
| CG1504 | 1 | 5 | inactive |
| CG1504 | 2 | 5 | inactive |
| CG8578 | 1 | 5 | inactive |
| mms4 | 1 | 13 | inactive |
| Pfrx | 1 | 7 | inactive |
| Pfrx | 2 | 4 | inactive |
| Pfrx | 3 | 6 | inactive |
| CG1724 | 1 | 3 | inactive |
| CG1724 | 2 | 7 | inactive |
| CG31207 | 1 | 9 | inactive |
| CG5510 | 1 | 11 | inactive |
| IntS4 | 1 | 6 | inactive |
| halo | 1 | 2 | inactive |
| halo | 2 | 6 | inactive |
| Tcs4 | 1 | 5 | inactive |
| Tcs4 | 2 | 7 | inactive |
| Nhe1 | 1 | 3 | inactive |
| CG30114 | 1 | 8 | inactive |
| CG30114 | 2 | 9 | inactive |
| eEF5 | 1 | 5 | inactive |
| PolZ1 | 1 | 7 | inactive |
| PolZ1 | 2 | 3 | inactive |
